Experimental data published in article PMC5665954, “Coupling fission and exit of RAB6 vesicles at Golgi hotspots through kinesin-myosin interactions” (Nature Communications, 2017).
These are yes or no findings as the source states them, for the method shown. Binding calls can cover weak binding; strength is not graded here. For some of these results: Where a sequence is shown, tags or fusion partners need not be part of it.

B1: 6xHis-KIF20A-RBD-529-665 (domain or fragment, UniProt P97329 529-665)
chain: QVGPGLEKEDKADSDLEDSPEDEADVSVYGKEELLQVVEAMKALLLKERQEKLQLEIQLREEICNEMVEQMQQREQWCSERLDNQKELMEELYEEKLKILKESLTTFYQEQIQERDEKIEELETLLQEAKQQPAAQQ

How the values were obtained:
[1] = biological target: T1, KIF20A-RBD-529-665 fragment (mouse) (UniProt P97329); assay: two-hybrid; S. cerevisiae reporter strain L40 co-transformed with plasmids for the two fusion proteins; LexA fusions of KIF20A domains; growth on medium lacking histidine (-W -L -H)
T1 sequence: B1 chain

[2] = biological target: T2, KIF20A tail domain (529-887) (mouse) (UniProt P97329); assay: as above
T2 sequence: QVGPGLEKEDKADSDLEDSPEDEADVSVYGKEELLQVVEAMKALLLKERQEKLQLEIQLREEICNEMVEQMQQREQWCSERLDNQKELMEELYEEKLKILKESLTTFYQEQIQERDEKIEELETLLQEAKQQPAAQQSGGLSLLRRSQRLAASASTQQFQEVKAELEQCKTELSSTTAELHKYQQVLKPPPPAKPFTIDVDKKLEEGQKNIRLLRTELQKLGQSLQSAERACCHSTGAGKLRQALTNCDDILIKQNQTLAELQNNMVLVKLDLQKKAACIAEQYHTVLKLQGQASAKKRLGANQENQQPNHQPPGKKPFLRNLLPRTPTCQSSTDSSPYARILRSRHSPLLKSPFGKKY

[3] = biological target: GST-Myosin II-1148-1652 (human); assay: ELISA; solid-phase assay: 96-well plates coated with 10 µg GST-GFP, GST-Myosin II-1148-1652 or GST-RAB6A:GTP; 0-40 µg 6xHis-RAB6:GTP or 6xHis-KIF20A-529-665 added; 20 mM Hepes pH 7.5, 100 mM NaCl, 5 mM MgCl2; detection with anti-6xHis antibodies, absorbance at 450 nm; both purified

Molecule	binding [1]	binding [2]	binding [3]
KIF20A-529-665-K629W-S631W (from UniProt P97329) (domain or fragment)	binds		
Tail domain of Myosin II (1147-1653 fragment of human myosin IIA heavy chain) (domain or fragment)	binds	binds	
B1			binds
